Literature values, collected in patent publication US5225411A, “Disubstituted polymethyleneimines” (priority 1990, dated 1993).

Settings: agents used clinically to overcome MDR-type resistance; cited from earlier work

Q: Which “toxicity limiting clinical use” value does the source give for `CCCCc1oc2ccccc2c1C(=O)c1cc(I)c(OCCN(CC)CC)c(I)c1` [AMIODARONE] here?
A: The value was “toxicity limits their use considerably”.
